The list shows only some results of the screen, not a fair sample: it gathers some chemical classes. Not every dose and run of a compound is shown. T/C: endpoint of the treated group in % of that of the vehicle group. For survival time, the PubChem record calls one and a half times the control and up active, and a quarter to a half above the control has no call in these data; cut-offs in other NCI protocols can differ. Schedules are NCI's codes, taken here to give the interval after Q, in days (D) or hours (H), and the number of doses after X. Some T/C values are marked as having no survivor count here; that says nothing about deaths at the dose. Some doses were run more than once; the values are given in rising order.

Nine molecules from PubChem BioAssay AID330 (DTP/NCI, 2004) can be followed below.

The subject of this assay is P388 leukemia ip, CD2F1 mice, survival T/C. Briefly: NCI In Vivo Anticancer Drug Screen. Data for tumor model P388 Leukemia (intraperitoneal) in CD2F1 (CDF1) mice. The conditions noted are these: T/C endpoint: median survival time, higher T/C = longer survival.
Setting [1] is: dose: 100.0 mg/kg/injection, schedule: Q04DX003 (ip), vehicle: saline.

For `CC(C)C(O)(C(=O)OCC1=CCC2CCC1N2C)c1ccccc1` (centres undefined), the T/C is 99 % of control (dose: 6.25 mg/kg/injection, schedule: Q04DX002 (ip), vehicle: saline, evaluated on day 30); 100 % of control [survivor count not shown] (dose: 6.25 mg/kg/injection, schedule: Q04DX002 (ip), vehicle: saline, evaluation day not shown); 100 % of control (dose: 12.5 mg/kg/injection, schedule: Q04DX002 (ip), vehicle: saline, evaluated on day 30); 100 [survivor count not shown] and 114 % of control [survivor count not shown] (dose: 12.5 mg/kg/injection, schedule: Q04DX002 (ip), vehicle: saline, evaluation day not shown); 90 % of control (dose: 25.0 mg/kg/injection, schedule: Q04DX002 (ip), vehicle: saline, evaluated on day 30); 100 [survivor count not shown] and 123 % of control [survivor count not shown] (dose: 25.0 mg/kg/injection, schedule: Q04DX002 (ip), vehicle: saline, evaluation day not shown). The T/C (dose: 50.0 mg/kg/injection, schedule: Q04DX002 (ip), vehicle: saline, evaluated on day 30) is 99 % of control; the T/C (dose: 50.0 mg/kg/injection, schedule: Q04DX002 (ip), vehicle: saline, evaluation day not shown) is 95 [survivor count not shown] and 97 % of control [survivor count not shown].

As to `CN(C)CCOC(=O)C(O)(c1ccccc1)c1ccccc1`, the T/C (dose: 6.25 mg/kg/injection, schedule: Q01DX009 (ip), vehicle: saline) is 96 % of control [survivor count not shown]; the T/C (dose: 12.5 mg/kg/injection, schedule: Q01DX009 (ip), vehicle: saline) was 100 % of control [survivor count not shown]; the T/C (dose: 25.0 mg/kg/injection, schedule: Q01DX009 (ip), vehicle: saline) is 105 [survivor count not shown] and 108 % of control [survivor count not shown].

As for `FCCNCCCl`, under “dose: 6.25 mg/kg/injection, schedule: Q01DX009 (ip), vehicle: alcohol”, the T/C was 127 % of control [survivor count not shown].

Take `CN1CCC(OC(=O)C(O)(c2ccccc2)C2C=CCCC2)CC1` (centres undefined): the T/C is 109 % of control [survivor count not shown] under setting [1]; 104 % of control [survivor count not shown] (dose: 200.0 mg/kg/injection, schedule: Q04DX003 (ip), vehicle: saline); 101 % of control [survivor count not shown] (dose: 400.0 mg/kg/injection, schedule: Q04DX003 (ip), vehicle: saline).

For the molecule `C/C=C\C(O)(C(=O)OC1CN2CCC1CC2)c1ccccc1` (centres undefined), the T/C by setting is: (dose: 100.0 mg/kg/injection, schedule: Q01DX001 (ip), vehicle: saline) 95 % of control [survivor count not shown]; (dose: 200.0 mg/kg/injection, schedule: Q01DX001 (ip), vehicle: saline) 92 % of control [survivor count not shown]; (dose: 400.0 mg/kg/injection, schedule: Q01DX001 (ip), vehicle: saline) 100 % of control [survivor count not shown].

With `ClCCNCCCCNCCCl`, the T/C (dose: 2.9 mg/kg/injection, schedule: Q01DX009 (ip), vehicle: saline) is 115 % of control [survivor count not shown]; the T/C (dose: 4.4 mg/kg/injection, schedule: Q01DX009 (ip), vehicle: saline) is 113 % of control [survivor count not shown]; the T/C (dose: 6.25 mg/kg/injection, schedule: Q04DX003 (ip), vehicle: saline) was 95 % of control [survivor count not shown]; the T/C (dose: 6.6 mg/kg/injection, schedule: Q01DX009 (ip), vehicle: saline) is 123 % of control [survivor count not shown]; the T/C (dose: 8.8 mg/kg/injection, schedule: Q01DX009 (ip), vehicle: saline) is 131 % of control [survivor count not shown]; the T/C (dose: 10.0 mg/kg/injection, schedule: Q01DX009 (ip), vehicle: saline) was 135 % of control [survivor count not shown]. Further, the T/C by setting is: (dose: 12.5 mg/kg/injection, schedule: Q04DX003 (ip), vehicle: saline) 100 % of control [survivor count not shown]; (dose: 13.2 mg/kg/injection, schedule: Q01DX009 (ip), vehicle: saline) 154 % of control [survivor count not shown]; (dose: 20.0 mg/kg/injection, schedule: Q01DX009 (ip), vehicle: saline) 168 % of control [survivor count not shown]; (dose: 25.0 mg/kg/injection, schedule: Q04DX003 (ip), vehicle: saline) 145 % of control [survivor count not shown]; (dose: 30.0 mg/kg/injection, schedule: Q01DX009 (ip), vehicle: saline) 200 % of control [survivor count not shown]; (dose: 44.0 mg/kg/injection, schedule: Q04DX003 (ip), vehicle: saline) 245 % of control [survivor count not shown]. The T/C (dose: 50.0 mg/kg/injection, schedule: Q04DX003 (ip), vehicle: saline) is 180 % of control [survivor count not shown]; the T/C (dose: 66.0 mg/kg/injection, schedule: Q04DX003 (ip), vehicle: saline) is 227 % of control [survivor count not shown]; the T/C under setting [1] was 213 % of control [survivor count not shown]; the T/C (dose: 150.0 mg/kg/injection, schedule: Q04DX003 (ip), vehicle: saline) is 118 % of control [survivor count not shown].

In the case of `CC(C)C#CC(O)(C(=O)OC1C2CCN(CC2)C1C)C1CCCC1` (centres undefined), the T/C is 98 % of control [survivor count not shown] (dose: 100.0 mg/kg/injection, schedule: Q01DX001 (ip), vehicle: saline with Tween-80); 101 % of control [survivor count not shown] (dose: 200.0 mg/kg/injection, schedule: Q01DX001 (ip), vehicle: saline with Tween-80); 94 % of control [survivor count not shown] (dose: 400.0 mg/kg/injection, schedule: Q01DX001 (ip), vehicle: saline with Tween-80).

As for `C#CCN(CCCl)CCCl`, the T/C runs as follows: (dose: 1.0 mg/kg/injection, schedule: Q01DX009 (ip), vehicle: saline with Tween-80) 168 % of control [survivor count not shown]; (dose: 2.0 mg/kg/injection, schedule: Q01DX009 (ip), vehicle: saline with Tween-80) 222 % of control [survivor count not shown]; (dose: 4.0 mg/kg/injection, schedule: Q01DX009 (ip), vehicle: saline with Tween-80) 90 % of control [survivor count not shown]; (dose: 4.0 mg/kg/injection, schedule: Q01DX009 (ip), vehicle: saline) 186 % of control [survivor count not shown]; (dose: 8.0 mg/kg/injection, schedule: Q01DX009 (ip), vehicle: saline) 86 % of control [survivor count not shown]; (dose: 8.0 mg/kg/injection, schedule: Q04DX003 (ip), vehicle: saline) 168 % of control [survivor count not shown]. Moreover, the T/C (dose: 16.0 mg/kg/injection, schedule: Q04DX003 (ip), vehicle: saline) is 90 % of control [survivor count not shown].

Consider `ClCCN(CCCl)C1CCCCC1`, for which the T/C is 98 % of control [survivor count not shown] (dose: 0.6 mg/kg/injection, schedule: Q01DX009 (ip), vehicle: saline); 99 % of control [survivor count not shown] (dose: 0.62 mg/kg/injection, schedule: Q01DX009 (ip), vehicle: saline); 110 [survivor count not shown] and 111 % of control [survivor count not shown] (dose: 1.25 mg/kg/injection, schedule: Q01DX009 (ip), vehicle: saline); 129 [survivor count not shown] and 135 % of control [survivor count not shown] (dose: 2.5 mg/kg/injection, schedule: Q01DX009 (ip), vehicle: saline); 138 [survivor count not shown] and 141 % of control [survivor count not shown] (dose: 5.0 mg/kg/injection, schedule: Q01DX009 (ip), vehicle: saline).
